The values that follow come from paper PMC8063757, “The DNA-binding protein HU is a molecular glue that attaches bacteria to extracellular DNA in biofilms” (The Journal of Biological Chemistry, 2020).

By UniProt entry, the sequences of proteins in these tests, tags left out. Where a name states a change or a piece, a line headed by the entry shows the natural chain unless it says otherwise.
UniProt P0ACF0: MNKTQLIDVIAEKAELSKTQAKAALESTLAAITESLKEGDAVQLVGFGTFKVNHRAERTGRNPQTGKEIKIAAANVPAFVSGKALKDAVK

Construct, isoform or probe ends are uncertain for at least one entry. At least one verdict rests on a figure or table, not on a statement of the authors.

This data set addresses HU-A (Escherichia coli K-12) (UniProt P0ACF0). Nature of the data set: EMSA. The settings on record: EMSA on 0.7% or 1% agarose gels, EtBr stain; binding buffer, pH and temperature not stated; recombinant protein; residues 1-90; protein details: N-term 6xHis (MRGSHHHHHHGS); label: none (EtBr stain); folded or branched DNA. (In general: In EMSA bound probe runs differently from free probe, usually more slowly.)

On to “CCCTATAACCCCTGCATTGAATTCCTGTCTGATAA / GTAGTCGTGATAGGTGCAGGGGTTATAGGG / AACAGTAGCTCTTAATTCGAGCTCGCGCCCTATCACGACTA / TTTATCAGACTGGAATTCAAGCGCGAGCTCGAATAAGAGCTACTGT [4WJ DNA]”, for which the binding result is on record as “binds”.
